This is one part of the list.
Key:
Assay in all cases: log2 fold change, soluble protein after heating vs DMSO (PISA); higher = thermal stabilisation; K562 cells, 10 uM, 30 min; active = over 0.2 and 3.5 SD of the protein, either way, in both replicates (recomputed)
[1] = compound: C1=CC=C(C=C1)[C@H](COC2=CC3=C(C=C2)NC(=O)N3)NC(=O)C4=CC=CN(C4=O)CC5=CC(=C(C=C5)F)F
How it was run: (§1)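 Values are thermal stability changes relative to control samples and are taken from duplicates. They are stated as log2 fold changes. Before quantification by TMTpro 16plex LC-MS/MS with equalised channel sums, K562 cells at 2×10^6 cells/mL were treated with 10 μM compound for 30 min, heated in aliquots for 3 min across 48°C-58°C, pooled, extracted in PBS with 0.5% NP-40 at 4°C, and centrifuged at 21,000xg for 90 min to give the soluble supernatant.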

Amino acid sequences for entries named in this document (tags omitted). A change or cut given only in a name is not applied to a line headed by its entry.
UniProt P46934: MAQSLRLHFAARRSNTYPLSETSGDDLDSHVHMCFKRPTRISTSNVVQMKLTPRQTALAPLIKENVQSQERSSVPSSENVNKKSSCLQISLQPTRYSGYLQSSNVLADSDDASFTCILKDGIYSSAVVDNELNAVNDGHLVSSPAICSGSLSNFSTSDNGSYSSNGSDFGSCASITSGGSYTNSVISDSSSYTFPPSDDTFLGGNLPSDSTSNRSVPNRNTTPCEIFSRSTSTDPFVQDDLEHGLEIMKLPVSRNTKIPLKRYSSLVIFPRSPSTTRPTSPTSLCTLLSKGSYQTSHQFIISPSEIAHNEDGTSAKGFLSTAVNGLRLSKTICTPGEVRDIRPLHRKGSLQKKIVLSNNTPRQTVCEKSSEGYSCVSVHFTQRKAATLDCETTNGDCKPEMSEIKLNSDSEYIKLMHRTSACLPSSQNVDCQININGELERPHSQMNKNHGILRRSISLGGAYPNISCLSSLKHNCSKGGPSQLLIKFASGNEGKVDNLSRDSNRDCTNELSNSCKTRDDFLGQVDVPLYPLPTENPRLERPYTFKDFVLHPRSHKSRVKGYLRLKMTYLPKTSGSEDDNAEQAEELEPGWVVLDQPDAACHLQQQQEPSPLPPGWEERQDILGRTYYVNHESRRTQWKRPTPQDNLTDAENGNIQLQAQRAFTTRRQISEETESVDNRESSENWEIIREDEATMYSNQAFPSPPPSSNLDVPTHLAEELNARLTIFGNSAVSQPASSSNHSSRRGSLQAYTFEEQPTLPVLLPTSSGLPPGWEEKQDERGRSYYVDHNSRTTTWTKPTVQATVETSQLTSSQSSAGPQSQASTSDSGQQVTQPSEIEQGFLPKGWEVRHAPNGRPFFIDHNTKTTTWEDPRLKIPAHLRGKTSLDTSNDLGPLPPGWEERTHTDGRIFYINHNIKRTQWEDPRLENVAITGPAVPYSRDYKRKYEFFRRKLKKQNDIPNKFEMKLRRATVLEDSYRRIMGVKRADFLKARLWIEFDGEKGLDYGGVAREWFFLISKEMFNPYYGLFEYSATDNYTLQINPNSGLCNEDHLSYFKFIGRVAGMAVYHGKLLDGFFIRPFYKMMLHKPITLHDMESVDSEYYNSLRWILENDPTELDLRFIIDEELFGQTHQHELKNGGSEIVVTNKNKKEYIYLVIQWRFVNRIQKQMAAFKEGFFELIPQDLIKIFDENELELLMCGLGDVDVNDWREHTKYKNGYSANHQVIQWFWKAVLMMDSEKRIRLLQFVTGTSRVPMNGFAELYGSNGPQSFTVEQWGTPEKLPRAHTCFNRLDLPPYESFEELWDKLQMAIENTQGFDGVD
UniProt Q9BU61: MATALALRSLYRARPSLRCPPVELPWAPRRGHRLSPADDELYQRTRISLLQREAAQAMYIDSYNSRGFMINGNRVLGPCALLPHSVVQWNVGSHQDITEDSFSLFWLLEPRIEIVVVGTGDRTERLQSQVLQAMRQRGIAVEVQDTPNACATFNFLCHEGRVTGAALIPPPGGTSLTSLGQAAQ
UniProt O75380, whole entry, looked up: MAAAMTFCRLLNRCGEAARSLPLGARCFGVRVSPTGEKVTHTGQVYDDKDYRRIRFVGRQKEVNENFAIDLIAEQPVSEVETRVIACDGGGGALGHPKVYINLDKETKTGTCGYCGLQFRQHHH
UniProt Q9BSU3: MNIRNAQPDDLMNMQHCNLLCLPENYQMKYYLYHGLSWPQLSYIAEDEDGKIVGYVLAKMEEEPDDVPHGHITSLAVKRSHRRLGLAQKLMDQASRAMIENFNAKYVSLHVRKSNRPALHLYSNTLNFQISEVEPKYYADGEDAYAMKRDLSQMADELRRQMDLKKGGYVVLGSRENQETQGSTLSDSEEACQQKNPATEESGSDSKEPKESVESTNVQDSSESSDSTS
UniProt O75306, whole entry, looked up: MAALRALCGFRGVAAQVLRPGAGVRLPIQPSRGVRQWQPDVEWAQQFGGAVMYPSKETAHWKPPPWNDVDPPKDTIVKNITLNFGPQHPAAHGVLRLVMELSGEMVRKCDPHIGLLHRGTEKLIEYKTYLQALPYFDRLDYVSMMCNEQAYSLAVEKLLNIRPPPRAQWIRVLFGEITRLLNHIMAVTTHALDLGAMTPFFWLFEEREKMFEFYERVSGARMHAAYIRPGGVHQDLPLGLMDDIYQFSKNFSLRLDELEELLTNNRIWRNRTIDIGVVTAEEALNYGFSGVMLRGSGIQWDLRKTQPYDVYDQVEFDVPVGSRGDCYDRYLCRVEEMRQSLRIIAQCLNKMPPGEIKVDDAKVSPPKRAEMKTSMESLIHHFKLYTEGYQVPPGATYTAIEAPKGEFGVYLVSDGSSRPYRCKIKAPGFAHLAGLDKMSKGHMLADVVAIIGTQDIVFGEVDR
UniProt Q16718, whole entry, looked up: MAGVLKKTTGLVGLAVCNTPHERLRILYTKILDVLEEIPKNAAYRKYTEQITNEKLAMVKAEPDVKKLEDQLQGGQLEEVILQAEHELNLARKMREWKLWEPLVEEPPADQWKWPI
UniProt Q86XI2: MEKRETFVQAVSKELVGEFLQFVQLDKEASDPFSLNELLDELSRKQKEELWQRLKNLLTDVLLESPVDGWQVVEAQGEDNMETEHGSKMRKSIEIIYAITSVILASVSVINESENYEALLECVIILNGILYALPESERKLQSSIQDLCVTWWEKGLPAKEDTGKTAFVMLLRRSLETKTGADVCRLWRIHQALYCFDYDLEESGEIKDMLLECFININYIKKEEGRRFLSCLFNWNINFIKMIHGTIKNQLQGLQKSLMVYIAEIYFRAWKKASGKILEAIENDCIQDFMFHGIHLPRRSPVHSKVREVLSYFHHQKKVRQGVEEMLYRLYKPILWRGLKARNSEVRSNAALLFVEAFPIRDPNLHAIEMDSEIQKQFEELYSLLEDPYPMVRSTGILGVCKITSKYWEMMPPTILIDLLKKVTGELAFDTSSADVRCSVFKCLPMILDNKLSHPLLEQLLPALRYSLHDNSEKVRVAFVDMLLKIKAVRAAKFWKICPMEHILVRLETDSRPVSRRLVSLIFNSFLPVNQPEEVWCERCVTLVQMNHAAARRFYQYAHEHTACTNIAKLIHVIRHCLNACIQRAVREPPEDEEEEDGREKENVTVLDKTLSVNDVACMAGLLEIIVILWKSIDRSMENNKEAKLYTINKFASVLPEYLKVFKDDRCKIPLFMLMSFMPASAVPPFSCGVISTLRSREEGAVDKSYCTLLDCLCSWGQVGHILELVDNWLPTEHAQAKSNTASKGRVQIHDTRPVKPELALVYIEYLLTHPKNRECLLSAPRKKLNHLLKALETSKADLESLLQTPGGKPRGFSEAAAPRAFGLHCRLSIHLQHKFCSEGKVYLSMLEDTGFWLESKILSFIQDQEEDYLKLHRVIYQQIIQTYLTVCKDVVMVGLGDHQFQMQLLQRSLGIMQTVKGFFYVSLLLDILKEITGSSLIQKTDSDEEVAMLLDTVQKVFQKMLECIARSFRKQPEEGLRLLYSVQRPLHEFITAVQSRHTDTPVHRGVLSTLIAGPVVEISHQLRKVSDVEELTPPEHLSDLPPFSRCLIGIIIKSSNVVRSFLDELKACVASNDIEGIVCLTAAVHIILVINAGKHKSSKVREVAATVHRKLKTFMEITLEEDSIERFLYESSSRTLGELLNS
UniProt O75376, whole entry, looked up: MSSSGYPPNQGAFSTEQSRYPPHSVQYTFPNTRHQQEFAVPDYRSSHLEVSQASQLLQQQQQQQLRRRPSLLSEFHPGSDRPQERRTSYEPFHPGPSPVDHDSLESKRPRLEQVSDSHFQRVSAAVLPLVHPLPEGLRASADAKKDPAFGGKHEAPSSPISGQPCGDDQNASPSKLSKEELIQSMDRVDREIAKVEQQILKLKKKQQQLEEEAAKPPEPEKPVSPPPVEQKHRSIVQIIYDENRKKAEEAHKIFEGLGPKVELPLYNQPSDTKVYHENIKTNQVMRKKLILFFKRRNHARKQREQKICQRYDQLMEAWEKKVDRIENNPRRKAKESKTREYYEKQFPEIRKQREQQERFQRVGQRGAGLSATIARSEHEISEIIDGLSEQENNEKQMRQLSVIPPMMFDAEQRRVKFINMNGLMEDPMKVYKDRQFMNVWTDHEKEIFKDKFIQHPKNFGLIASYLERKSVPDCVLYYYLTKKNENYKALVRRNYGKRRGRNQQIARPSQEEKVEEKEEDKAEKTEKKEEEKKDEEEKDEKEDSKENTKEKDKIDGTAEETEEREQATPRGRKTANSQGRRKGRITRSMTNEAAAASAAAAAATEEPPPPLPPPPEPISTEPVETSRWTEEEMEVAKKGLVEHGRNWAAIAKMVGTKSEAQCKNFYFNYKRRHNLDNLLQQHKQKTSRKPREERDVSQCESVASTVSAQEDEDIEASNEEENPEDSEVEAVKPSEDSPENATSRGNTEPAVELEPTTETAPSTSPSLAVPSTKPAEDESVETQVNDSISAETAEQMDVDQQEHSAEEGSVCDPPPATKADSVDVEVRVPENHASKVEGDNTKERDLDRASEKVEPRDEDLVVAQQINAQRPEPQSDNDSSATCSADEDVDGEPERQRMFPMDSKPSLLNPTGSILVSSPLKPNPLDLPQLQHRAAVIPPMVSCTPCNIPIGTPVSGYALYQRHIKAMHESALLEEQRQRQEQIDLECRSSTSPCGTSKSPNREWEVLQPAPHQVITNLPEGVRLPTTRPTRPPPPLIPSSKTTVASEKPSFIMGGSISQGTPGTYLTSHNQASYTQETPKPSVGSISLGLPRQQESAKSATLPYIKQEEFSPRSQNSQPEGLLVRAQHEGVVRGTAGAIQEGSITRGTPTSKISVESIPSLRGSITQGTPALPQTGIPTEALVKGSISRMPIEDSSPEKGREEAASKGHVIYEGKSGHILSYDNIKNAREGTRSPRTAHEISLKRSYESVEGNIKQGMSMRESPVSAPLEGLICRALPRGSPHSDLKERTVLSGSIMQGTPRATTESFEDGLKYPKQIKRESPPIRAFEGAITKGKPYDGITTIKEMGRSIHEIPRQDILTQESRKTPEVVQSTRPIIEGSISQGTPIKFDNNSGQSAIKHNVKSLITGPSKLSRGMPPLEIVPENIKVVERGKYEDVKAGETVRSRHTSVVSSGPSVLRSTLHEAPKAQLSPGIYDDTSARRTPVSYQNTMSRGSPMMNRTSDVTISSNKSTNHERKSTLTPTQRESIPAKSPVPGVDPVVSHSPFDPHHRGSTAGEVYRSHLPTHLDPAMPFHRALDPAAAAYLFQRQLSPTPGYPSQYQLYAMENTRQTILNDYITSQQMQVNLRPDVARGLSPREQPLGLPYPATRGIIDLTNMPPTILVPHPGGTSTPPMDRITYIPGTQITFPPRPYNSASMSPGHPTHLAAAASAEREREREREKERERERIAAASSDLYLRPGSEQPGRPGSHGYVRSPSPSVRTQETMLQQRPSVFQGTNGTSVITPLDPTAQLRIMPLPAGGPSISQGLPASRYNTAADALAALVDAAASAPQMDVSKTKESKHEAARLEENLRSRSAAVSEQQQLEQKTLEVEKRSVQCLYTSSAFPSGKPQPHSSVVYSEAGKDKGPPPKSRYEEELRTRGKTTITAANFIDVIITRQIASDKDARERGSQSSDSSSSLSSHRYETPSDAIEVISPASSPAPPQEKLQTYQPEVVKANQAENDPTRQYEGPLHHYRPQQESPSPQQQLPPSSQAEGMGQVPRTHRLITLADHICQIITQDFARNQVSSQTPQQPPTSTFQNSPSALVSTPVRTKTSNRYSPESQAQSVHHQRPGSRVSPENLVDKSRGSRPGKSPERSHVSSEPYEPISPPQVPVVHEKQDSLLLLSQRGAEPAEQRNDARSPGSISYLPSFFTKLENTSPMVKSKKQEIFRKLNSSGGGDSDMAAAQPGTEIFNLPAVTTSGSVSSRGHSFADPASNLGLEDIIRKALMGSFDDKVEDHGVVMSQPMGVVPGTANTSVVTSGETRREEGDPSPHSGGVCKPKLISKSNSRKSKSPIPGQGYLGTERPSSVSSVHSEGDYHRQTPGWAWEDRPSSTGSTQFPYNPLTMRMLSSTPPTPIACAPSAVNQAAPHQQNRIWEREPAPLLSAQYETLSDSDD
UniProt Q969V3: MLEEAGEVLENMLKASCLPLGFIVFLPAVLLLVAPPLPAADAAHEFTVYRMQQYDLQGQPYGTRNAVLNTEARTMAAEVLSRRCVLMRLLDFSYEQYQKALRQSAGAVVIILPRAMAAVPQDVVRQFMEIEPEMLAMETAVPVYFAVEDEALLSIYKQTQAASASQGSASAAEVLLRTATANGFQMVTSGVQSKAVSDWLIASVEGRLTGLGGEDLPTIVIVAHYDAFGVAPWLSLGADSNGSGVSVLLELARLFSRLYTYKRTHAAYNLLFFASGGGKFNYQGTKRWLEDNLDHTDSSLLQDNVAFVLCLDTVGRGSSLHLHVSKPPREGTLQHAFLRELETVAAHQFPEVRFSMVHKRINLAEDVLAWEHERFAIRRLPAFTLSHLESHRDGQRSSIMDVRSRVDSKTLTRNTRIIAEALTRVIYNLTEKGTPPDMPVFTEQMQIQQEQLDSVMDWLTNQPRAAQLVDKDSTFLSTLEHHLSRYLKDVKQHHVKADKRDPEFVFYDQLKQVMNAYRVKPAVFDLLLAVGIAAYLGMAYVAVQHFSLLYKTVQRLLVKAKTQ

[2] = compound: CC1=C(SC2=C1C(=N[C@H](C3=NN=C(N32)C)CC(=O)N)C4=CC=C(C=C4)Cl)C
How it was run: as §1

[3] = compound: CC1=C2C(=CC=C1)N=C(N(C2=O)C3=CC=CC=C3C)CN4C=NC5=C(N=CN=C54)N
How it was run: as §1

[4] = compound: Cc1sc2c(c1C)C(c1ccc(Cl)cc1)=N[C@@H](CC(=O)OC(C)(C)C)c1nnc(C)n1-2
How it was run: as §1

[5] = compound: c1ccc([C@@H]2C[C@H]2NC2CCNCC2)cc1
How it was run: as §1

Measured: log2 fold change

NAA35 (UniProt Q5VZE5)
inactive: [1] -0.012 | [2] 0.051 | [3] -0.043 | [4] -0.022 | [5] -0.034

NADK (UniProt O95544)
inactive: [1] -0.006 | [2] 0.029 | [3] 0.047 | [4] 0.017 | [5] 0.009

NEDD4 isoform 4 (UniProt P46934)
inactive: [1] -0.006 | [2] 0.103 | [3] 0.081 | [4] 0.002 | [5] -0.007

NEBL (UniProt O76041)
inactive: [1] 0.19 | [2] -0.088 | [3] 0.032 | [4] -0.022 | [5] 0.017

NDUFAF3 (UniProt Q9BU61)
inactive: [1] -0.014 | [2] 0.093 | [3] 0.03 | [4] -0.079 | [5] -0.041

NEBL isoform 2 (UniProt O76041)
inactive: [1] 0.047 | [2] -0.016 | [3] 0.062 | [4] 0.021 | [5] 0.019

NDUFS6 (UniProt O75380)
inactive: [1] 0.072 | [2] -0.111 | [3] -0.04 | [4] 0.045 | [5] 0.076

NAA11 (UniProt Q9BSU3)
inactive: [1] 0.009 | [2] 0.042 | [3] 0.049 | [4] -0.12 | [5] -0.049

NDUFA9 (UniProt Q16795)
inactive: [1] -0.005 | [2] 0.075 | [3] 0.078 | [4] -0.014 | [5] -0.054

NAPG (UniProt Q99747)
inactive: [1] -0.036 | [2] 0.044 | [3] 0.073 | [4] -0.023 | [5] -0.077

NAT10 (UniProt Q9H0A0)
inactive: [1] 0.01 | [2] -0.156 | [3] -0.18 | [4] 0.242 | [5] 0.034

NAT14 (UniProt Q8WUY8)
inactive: [1] -0.059 | [2] 0.055 | [3] -0.087 | [4] 0.043 | [5] -0.047

NDUFS8 (UniProt O00217)
inactive: [1] -0.049 | [2] 0.1 | [3] 0.082 | [4] -0.023 | [5] -0.02

NDUFA11 (UniProt Q86Y39)
inactive: [1] 0.012 | [2] 0.01 | [3] 0.013 | [4] -0.057 | [5] 0.039

NAA16 (UniProt Q6N069)
inactive: [1] 0.008 | [2] 0.012 | [3] 0.002 | [4] 0.009 | [5] 0.003

NDUFAF2 (UniProt Q8N183)
inactive: [1] 0.032 | [2] 0.024 | [3] 0.029 | [4] 0.001 | [5] 0.022

NDUFA3 (UniProt O95167)
inactive: [1] 0.112 | [2] 0.14 | [3] 0.102 | [4] -0.176 | [5] 0.066

NDUFS2 (UniProt O75306)
inactive: [1] -0.018 | [2] 0.011 | [3] -0.019 | [4] -0.038 | [5] -0.044

Two successive entries out of the list so far:
NDUFS6 (UniProt O75380)
inactive: [1] 0.072 | [2] -0.111 | [3] -0.04 | [4] 0.045 | [5] 0.076

NAA11 (UniProt Q9BSU3)
inactive: [1] 0.009 | [2] 0.042 | [3] 0.049 | [4] -0.12 | [5] -0.049

More entries

NDUFA5 (UniProt Q16718)
inactive: [1] 0.033 | [2] 0.139 | [3] 0.08 | [4] -0.169 | [5] -0.137

NEDD1 isoform 3 (UniProt Q8NHV4)
inactive: [1] -0.024 | [2] 0.067 | [3] 0.058 | [4] 0.002 | [5] 0.052

NADK2 (UniProt Q4G0N4)
inactive: [1] 0.039 | [2] 0.016 | [3] 0.015 | [4] -0.022 | [5] 0.055

NCAPG2 isoform 2 (UniProt Q86XI2)
inactive: [1] -0.002 | [2] -0.104 | [3] -0.001 | [4] 0.018 | [5] -0.109

NARS1 (UniProt O43776)
inactive: [1] -0.01 | [2] -0.035 | [3] -0.049 | [4] 0.012 | [5] 0.017

NCAPG (UniProt Q9BPX3)
inactive: [1] -0.033 | [2] 0.019 | [3] 0.101 | [4] -0.002 | [5] -0.002

NAA30 (UniProt Q147X3)
inactive: [1] -0.041 | [2] -0.001 | [3] 0 | [4] 0.013 | [5] -0.012

NADSYN1 (UniProt Q6IA69)
inactive: [1] 0.04 | [2] 0.005 | [3] 0.038 | [4] 0 | [5] 0.008

NDUFV2 (UniProt P19404)
inactive: [1] 0.019 | [2] 0.028 | [3] -0.035 | [4] -0.011 | [5] 0.007

NCOR1 (UniProt O75376)
inactive: [1] -0.102 | [2] 0.06 | [3] 0.002 | [4] 0.016 | [5] -0.111

NCAPD2 (UniProt Q15021)
inactive: [1] -0.078 | [2] 0.04 | [3] 0.044 | [4] 0.016 | [5] 0.007

NCLN (UniProt Q969V3)
inactive: [1] 0.02 | [2] -0.003 | [3] -0.012 | [4] 0.033 | [5] -0.001

NCBP1 (UniProt Q09161)
inactive: [1] -0.015 | [2] 0.028 | [3] 0.089 | [4] 0.014 | [5] -0.013

Source: the supplement of paper PMC10849652
